Measured values taken from the supplement of paper PMC10849652.
This is one part of the list.

Protein sequences, listed by entry. Tags and fused reporters are not part of them. Lines headed by an entry give the natural chain unless they say otherwise; changes in a name come on top.
UniProt Q9UHA4, whole entry, looked up: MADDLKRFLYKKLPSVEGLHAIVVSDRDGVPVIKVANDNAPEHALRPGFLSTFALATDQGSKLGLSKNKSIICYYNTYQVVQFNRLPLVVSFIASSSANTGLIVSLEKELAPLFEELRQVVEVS
UniProt Q96AT1: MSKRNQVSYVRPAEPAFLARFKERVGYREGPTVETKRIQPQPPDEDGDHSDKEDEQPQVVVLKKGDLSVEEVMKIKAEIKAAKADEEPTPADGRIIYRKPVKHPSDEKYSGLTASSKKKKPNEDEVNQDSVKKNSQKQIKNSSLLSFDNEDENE
UniProt O60662: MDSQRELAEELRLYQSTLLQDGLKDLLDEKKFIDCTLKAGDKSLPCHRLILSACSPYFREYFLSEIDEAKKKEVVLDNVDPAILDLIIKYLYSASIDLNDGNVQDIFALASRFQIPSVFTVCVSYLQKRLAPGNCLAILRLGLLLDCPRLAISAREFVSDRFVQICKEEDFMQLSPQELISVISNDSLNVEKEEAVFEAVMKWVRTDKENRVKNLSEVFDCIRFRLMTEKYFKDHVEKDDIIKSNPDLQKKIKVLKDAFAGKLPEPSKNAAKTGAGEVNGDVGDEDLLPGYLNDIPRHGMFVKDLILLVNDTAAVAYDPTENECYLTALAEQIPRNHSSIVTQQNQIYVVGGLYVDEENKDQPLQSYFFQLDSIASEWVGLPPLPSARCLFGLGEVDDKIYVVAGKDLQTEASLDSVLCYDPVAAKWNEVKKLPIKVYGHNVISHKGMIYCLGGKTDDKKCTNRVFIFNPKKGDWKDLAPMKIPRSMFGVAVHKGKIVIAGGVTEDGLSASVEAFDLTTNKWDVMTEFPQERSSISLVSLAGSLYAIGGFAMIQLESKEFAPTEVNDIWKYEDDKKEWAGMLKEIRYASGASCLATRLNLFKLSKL
UniProt P52732: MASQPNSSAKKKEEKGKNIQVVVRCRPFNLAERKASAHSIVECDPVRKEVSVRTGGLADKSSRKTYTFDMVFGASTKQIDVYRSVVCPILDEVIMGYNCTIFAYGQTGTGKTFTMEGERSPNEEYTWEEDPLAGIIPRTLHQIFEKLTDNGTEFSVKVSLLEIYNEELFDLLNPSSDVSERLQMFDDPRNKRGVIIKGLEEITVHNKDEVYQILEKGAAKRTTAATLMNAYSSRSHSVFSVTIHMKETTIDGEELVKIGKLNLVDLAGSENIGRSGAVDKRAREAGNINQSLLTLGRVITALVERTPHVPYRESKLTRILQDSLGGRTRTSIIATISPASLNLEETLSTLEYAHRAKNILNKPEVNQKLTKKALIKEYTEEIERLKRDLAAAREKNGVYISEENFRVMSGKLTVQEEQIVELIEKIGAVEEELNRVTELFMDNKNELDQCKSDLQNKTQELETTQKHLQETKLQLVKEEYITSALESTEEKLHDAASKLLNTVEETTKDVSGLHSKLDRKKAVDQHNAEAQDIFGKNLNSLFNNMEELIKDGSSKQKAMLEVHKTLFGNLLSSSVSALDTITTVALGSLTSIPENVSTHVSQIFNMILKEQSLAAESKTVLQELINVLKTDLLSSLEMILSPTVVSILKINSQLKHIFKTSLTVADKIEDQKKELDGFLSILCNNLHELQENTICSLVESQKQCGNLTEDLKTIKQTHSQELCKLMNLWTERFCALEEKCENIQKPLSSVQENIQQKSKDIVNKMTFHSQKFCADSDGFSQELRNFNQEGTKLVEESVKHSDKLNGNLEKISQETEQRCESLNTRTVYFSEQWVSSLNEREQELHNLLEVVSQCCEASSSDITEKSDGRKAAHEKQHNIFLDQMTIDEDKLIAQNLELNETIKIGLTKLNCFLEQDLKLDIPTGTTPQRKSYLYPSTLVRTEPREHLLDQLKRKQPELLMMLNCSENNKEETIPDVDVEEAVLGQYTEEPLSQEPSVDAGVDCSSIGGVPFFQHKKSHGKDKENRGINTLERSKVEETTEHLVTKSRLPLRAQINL
UniProt Q03164, whole entry, looked up: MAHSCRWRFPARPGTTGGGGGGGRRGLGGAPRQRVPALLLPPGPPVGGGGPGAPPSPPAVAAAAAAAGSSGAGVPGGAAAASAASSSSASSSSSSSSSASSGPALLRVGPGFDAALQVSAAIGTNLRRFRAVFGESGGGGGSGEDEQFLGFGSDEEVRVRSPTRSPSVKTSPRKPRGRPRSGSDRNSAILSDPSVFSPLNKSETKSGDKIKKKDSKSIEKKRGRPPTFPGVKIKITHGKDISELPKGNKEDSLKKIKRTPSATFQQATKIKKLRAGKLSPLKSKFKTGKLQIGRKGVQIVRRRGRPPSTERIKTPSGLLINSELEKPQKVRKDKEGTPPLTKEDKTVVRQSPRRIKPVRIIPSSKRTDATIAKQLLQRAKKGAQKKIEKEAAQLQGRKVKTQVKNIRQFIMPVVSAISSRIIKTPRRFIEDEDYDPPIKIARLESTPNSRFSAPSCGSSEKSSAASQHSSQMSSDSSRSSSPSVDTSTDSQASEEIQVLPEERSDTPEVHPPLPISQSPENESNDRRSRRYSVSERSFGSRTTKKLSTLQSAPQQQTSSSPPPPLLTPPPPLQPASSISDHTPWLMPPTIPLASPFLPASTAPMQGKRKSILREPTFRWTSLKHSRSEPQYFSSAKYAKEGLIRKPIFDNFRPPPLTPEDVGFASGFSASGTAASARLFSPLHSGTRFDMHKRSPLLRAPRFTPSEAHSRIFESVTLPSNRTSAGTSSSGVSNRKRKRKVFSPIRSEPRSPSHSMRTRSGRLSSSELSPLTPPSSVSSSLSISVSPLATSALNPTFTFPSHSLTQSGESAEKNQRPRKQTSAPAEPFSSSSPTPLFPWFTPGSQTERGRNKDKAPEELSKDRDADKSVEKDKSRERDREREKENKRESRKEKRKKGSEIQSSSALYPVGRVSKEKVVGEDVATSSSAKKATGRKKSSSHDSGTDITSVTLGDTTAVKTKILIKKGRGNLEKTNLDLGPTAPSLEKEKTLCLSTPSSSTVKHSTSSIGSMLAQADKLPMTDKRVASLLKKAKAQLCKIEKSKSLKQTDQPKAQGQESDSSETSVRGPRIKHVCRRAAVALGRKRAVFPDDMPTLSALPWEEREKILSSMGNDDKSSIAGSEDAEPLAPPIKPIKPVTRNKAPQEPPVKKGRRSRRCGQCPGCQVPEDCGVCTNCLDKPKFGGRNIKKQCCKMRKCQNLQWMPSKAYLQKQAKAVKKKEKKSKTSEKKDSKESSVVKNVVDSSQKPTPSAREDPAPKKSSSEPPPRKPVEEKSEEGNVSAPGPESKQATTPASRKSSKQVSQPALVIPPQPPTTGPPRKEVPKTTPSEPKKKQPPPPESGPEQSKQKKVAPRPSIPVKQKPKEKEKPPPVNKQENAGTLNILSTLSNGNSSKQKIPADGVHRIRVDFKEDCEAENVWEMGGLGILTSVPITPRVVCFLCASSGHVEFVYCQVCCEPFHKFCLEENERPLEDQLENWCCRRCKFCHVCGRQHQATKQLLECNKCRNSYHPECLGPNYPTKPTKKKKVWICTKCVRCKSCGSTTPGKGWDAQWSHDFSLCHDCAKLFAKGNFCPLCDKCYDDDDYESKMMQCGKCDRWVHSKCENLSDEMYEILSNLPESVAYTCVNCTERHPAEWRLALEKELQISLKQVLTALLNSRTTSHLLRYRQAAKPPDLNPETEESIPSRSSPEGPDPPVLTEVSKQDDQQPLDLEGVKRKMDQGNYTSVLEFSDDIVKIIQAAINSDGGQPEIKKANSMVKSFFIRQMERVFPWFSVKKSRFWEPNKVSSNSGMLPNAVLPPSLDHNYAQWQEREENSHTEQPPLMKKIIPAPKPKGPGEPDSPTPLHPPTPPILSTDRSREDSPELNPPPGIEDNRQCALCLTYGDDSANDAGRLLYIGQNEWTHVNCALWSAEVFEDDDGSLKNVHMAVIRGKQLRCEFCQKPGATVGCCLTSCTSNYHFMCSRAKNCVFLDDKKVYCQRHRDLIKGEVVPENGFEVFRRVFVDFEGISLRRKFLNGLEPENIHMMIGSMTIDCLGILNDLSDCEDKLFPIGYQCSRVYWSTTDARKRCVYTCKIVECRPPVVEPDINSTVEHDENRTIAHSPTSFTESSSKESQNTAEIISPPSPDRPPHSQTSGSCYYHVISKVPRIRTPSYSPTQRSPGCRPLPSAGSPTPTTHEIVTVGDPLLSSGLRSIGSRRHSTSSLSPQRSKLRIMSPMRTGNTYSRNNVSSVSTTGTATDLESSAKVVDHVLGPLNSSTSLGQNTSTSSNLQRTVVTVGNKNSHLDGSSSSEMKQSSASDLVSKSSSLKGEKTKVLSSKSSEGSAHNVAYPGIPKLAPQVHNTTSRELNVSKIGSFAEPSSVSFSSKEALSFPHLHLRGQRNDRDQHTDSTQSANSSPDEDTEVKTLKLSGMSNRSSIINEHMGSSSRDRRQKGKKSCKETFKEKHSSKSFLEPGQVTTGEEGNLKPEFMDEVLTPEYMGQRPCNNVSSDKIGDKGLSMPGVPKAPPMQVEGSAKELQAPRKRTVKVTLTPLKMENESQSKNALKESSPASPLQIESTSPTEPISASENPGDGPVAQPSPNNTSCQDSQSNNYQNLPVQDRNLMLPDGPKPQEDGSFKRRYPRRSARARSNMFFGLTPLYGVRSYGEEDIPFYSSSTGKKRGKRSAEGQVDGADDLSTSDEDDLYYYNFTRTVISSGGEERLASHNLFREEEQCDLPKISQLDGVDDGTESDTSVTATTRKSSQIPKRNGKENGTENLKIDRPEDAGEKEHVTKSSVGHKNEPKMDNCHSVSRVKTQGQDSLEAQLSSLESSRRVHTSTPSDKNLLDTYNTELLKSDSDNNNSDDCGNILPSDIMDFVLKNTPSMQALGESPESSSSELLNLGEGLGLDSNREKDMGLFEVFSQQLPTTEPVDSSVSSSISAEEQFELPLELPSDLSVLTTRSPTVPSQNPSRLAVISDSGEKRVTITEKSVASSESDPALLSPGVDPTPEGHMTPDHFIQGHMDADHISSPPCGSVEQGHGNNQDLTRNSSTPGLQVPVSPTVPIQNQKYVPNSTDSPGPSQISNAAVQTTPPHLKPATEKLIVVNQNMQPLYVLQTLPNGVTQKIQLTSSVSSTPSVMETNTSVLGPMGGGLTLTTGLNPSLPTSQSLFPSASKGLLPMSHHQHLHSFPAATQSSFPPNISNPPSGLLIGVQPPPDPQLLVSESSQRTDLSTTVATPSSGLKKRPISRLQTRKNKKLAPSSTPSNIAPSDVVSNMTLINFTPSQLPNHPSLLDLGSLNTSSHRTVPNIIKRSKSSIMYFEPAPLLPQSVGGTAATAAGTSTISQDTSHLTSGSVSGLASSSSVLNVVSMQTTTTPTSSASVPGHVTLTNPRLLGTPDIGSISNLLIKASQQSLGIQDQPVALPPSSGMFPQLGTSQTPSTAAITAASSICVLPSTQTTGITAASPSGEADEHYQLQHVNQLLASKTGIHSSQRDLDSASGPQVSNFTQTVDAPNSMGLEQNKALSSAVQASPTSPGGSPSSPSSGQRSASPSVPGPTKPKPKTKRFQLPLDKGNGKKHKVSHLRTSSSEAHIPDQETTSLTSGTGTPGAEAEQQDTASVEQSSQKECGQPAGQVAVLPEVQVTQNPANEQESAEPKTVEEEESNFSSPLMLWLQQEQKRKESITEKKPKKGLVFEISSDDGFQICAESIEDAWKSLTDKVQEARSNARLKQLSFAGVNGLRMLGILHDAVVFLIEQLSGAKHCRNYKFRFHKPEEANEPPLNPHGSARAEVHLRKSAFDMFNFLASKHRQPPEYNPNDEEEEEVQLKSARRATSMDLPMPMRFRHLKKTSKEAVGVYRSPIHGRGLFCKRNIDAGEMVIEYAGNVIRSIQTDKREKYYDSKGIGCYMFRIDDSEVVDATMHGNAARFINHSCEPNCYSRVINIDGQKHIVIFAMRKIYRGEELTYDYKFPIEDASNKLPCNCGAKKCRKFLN
UniProt P50053: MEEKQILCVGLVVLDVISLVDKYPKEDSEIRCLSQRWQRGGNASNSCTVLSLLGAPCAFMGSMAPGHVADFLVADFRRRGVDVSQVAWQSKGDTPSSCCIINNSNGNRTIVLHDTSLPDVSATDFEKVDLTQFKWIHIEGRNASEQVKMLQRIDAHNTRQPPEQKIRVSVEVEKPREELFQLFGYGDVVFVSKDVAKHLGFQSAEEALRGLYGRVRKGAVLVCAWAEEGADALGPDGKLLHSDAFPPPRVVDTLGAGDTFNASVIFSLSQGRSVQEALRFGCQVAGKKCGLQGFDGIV
UniProt Q9Y448: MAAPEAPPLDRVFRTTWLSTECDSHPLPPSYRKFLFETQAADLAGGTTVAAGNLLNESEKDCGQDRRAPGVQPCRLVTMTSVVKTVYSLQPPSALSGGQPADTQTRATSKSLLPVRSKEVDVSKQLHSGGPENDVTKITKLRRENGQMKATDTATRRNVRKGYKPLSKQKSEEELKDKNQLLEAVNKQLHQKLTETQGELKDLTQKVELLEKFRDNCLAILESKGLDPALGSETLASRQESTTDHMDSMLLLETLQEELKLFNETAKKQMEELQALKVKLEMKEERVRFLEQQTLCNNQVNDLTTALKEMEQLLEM

Key:
Assay in all cases: log2 fold change, soluble protein after heating vs DMSO (PISA); higher = thermal stabilisation; K562 lysate, 10 uM; active = over 0.2 and 3.5 SD of the protein, either way, in both replicates (recomputed)
erlotinib = compound: C#Cc1cccc(Nc2ncnc3cc(OCCOC)c(OCCOC)cc23)c1 [erlotinib]
Method in brief: (§1)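 A 30 min treatment with 10 μM compound was applied to crude K562 extract at 1 mg/mL protein in PBS pH 7.4 with 1 mM MgCl2. Heating for 3 min spanned 48°C-58°C, after which aliquots were pooled, adjusted to 0.5% NP-40 at 4°C and spun at 21,000xg for 90 min. TMTpro 16plex LC-MS/MS of the supernatant, with channel sums equalised, gave values recorded as log-two fold change in thermal stability against solvent controls, from duplicates.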

[1] = compound: C/C(=N\NC(=O)C1=CC(=CC=C1)S(=O)(=O)N2CCOCC2)/C3=C(C=CC(=C3)Cl)O
Method in brief: as §1

[2] = compound: C1=CC(=CC=C1C2=NC3=C(N2)C=C(C=C3)C(=O)N)OC4=CC=C(C=C4)Cl
Method in brief: as §1

[3] = compound: C1=CC2=C(C=CC(=C2)/C=C\3/C(=O)NC(=NCC4=CC=CS4)S3)N=C1
Method in brief: as §1

[4] = compound: C1=CC2=NC=CN=C2C=C1/C=C/3\C(=O)NC(=O)S3
Method in brief: as §1

[5] = compound: C1=CC=C(C=C1)C2=NC(=C(N2)C3=CC=NC=C3)C4=CC(=C(C=C4)Cl)O
Method in brief: as §1

[6] = compound: C1=CC=C2C(=C1)C3=NNC4=CC=CC(=C43)C2=O
Method in brief: as §1

[7] = compound: C1CCN(C1)C(=O)NC2=CC=CC(=C2)NC3=NC=C(C(=N3)NCCC4=CN=CN4)Br
Method in brief: as §1

[8] = compound: C1CN(CCC1(CC2=CC=C(C=C2)Cl)N)C3=NC=NC4=C3C=CN4
Method in brief: as §1

IRAK-1-4 Inhibitor I = compound: C1COCCN1CCN2C3=CC=CC=C3N=C2NC(=O)C4=CC(=CC=C4)[N+](=O)[O-] [IRAK-1-4 Inhibitor I]
Method in brief: as §1

ibrutinib = compound: C=CC(=O)N1CCC[C@@H](n2nc(-c3ccc(Oc4ccccc4)cc3)c3c(N)ncnc32)C1 [ibrutinib]
Method in brief: as §1

[9] = compound: CC(=O)c1cnc2ccc(-c3cc(Cl)c(O)c(Cl)c3)nc2c1N[C@H]1CC[C@H](CN(C)C)CC1
Method in brief: as §1

ralimetinib = compound: CC(C)(C)Cn1c(N)nc2ccc(-c3[nH]c(C(C)(C)C)nc3-c3ccc(F)cc3)nc21 [ralimetinib]
Method in brief: as §1

[10] = compound: CC(C)(O)CC(=O)NCCn1ccc2ncnc(Nc3ccc(Oc4cccc(C(F)(F)F)c4)c(Cl)c3)c21
Method in brief: as §1

[11] = compound: CC(C)C1=C2N=C(C=C(N2N=C1)NCC3=CC=CC=C3)NCCCCCCN
Method in brief: as §1

[12] = compound: CC1=C(C(CC(=O)N1)C2=CC=C(C=C2)C(F)(F)F)C(=O)NC3=C(C=C4C(=C3)C=NN4)F
Method in brief: as §1

[13] = compound: CC1=C(C2=C(C=C1)C(=O)C3=CC=CC=C3N2CCCN)C
Method in brief: as §1

[14] = compound: CC1=C(C=C(C=C1)NC(=O)C2=CC(=CC=C2)C(C)(C)C#N)NC3=CC4=C(C=C3)N=CN(C4=O)C
Method in brief: as §1

[15] = compound: CC1=C(C=C(C=C1)NC(=O)C2=CC(=CC=C2)N(C)C)NC(=O)C3=CC=C(C=C3)O
Method in brief: as §1

[16] = compound: CC1=CC=C(C=C1)SC2=C3C=C(SC3=CN=C2)C(=O)N
Method in brief: as §1

Measured: log2 fold change

LAMTOR3 (UniProt Q9UHA4)
inactive: erlotinib -0.006 | [1] -0.037 | [2] 0.003 | [3] -0.053 | [4] -0.005 | [5] -0.019 | [6] 0.027 | [7] -0.017 | [8] 0.012 | IRAK-1-4 Inhibitor I 0.063 | ibrutinib 0.03 | [9] 0.007 | ralimetinib 0.021 | [10] -0.041 | [11] -0.008 | [12] -0.014 | [13] -0.008 | [14] 0.069 | [15] -0.007 | [16] -0.01

KHSRP (UniProt Q92945)
inactive: erlotinib -0.044 | [1] -0.011 | [2] 0.003 | [3] -0.008 | [4] 0.006 | [5] 0.004 | [6] 0.026 | [7] 0.011 | [8] -0.011 | IRAK-1-4 Inhibitor I -0.002 | ibrutinib 0.017 | [9] 0 | ralimetinib 0.003 | [10] -0.005 | [11] -0.016 | [12] -0.004 | [13] 0.036 | [14] -0.19 | [15] 0.009 | [16] -0.016

KIAA1143 (UniProt Q96AT1)
inactive: erlotinib 0.007 | [1] -0.135 | [2] 0.115 | [3] -0.007 | [4] -0.055 | [5] -0.009 | [6] 0.027 | [7] -0.017 | [8] -0.006 | IRAK-1-4 Inhibitor I 0.026 | ibrutinib 0 | [9] -0.025 | ralimetinib -0.012 | [10] -0.047 | [11] 0.017 | [12] -0.02 | [13] -0.013 | [14] 0.04 | [15] 0.008 | [16] -0.066

KLHL36 (UniProt Q8N4N3)
active: [4] -0.313
inactive: erlotinib -0.047 | [1] -0.001 | [2] 0.06 | [3] -0.112 | [5] -0.041 | [6] 0.013 | [7] -0.009 | [8] 0.084 | IRAK-1-4 Inhibitor I 0.011 | ibrutinib 0.002 | [9] -0.047 | ralimetinib 0.092 | [10] -0.028 | [11] 0.053 | [12] -0.008 | [13] -0.085 | [14] -0.005 | [15] -0.098 | [16] -0.003

LAP3 (UniProt P28838)
inactive: erlotinib -0.034 | [1] 0.08 | [2] 0.082 | [3] -0.022 | [4] 0.013 | [5] -0.026 | [6] -0.017 | [7] 0.027 | [8] 0.008 | IRAK-1-4 Inhibitor I 0.061 | ibrutinib 0.043 | [9] -0.03 | ralimetinib -0.05 | [10] -0.103 | [11] 0 | [12] -0.024 | [13] -0.042 | [14] 0.117 | [15] -0.009 | [16] -0.018

Two entries drawn at random from those above, as already listed:
KHSRP (UniProt Q92945)
inactive: erlotinib -0.044 | [1] -0.011 | [2] 0.003 | [3] -0.008 | [4] 0.006 | [5] 0.004 | [6] 0.026 | [7] 0.011 | [8] -0.011 | IRAK-1-4 Inhibitor I -0.002 | ibrutinib 0.017 | [9] 0 | ralimetinib 0.003 | [10] -0.005 | [11] -0.016 | [12] -0.004 | [13] 0.036 | [14] -0.19 | [15] 0.009 | [16] -0.016

LAP3 (UniProt P28838)
inactive: erlotinib -0.034 | [1] 0.08 | [2] 0.082 | [3] -0.022 | [4] 0.013 | [5] -0.026 | [6] -0.017 | [7] 0.027 | [8] 0.008 | IRAK-1-4 Inhibitor I 0.061 | ibrutinib 0.043 | [9] -0.03 | ralimetinib -0.05 | [10] -0.103 | [11] 0 | [12] -0.024 | [13] -0.042 | [14] 0.117 | [15] -0.009 | [16] -0.018

(cont.)

KIAA0319L (UniProt Q8IZA0)
inactive: erlotinib -0.042 | [1] 0.02 | [2] 0.015 | [3] 0.017 | [4] -0.044 | [5] -0.014 | [6] -0.021 | [7] -0.039 | [8] -0.011 | IRAK-1-4 Inhibitor I 0.002 | ibrutinib 0.068 | [9] -0.013 | ralimetinib -0.001 | [10] 0.039 | [11] -0.037 | [12] 0.021 | [13] -0.003 | [14] -0.021 | [15] -0.015 | [16] 0.002

KIF3A (UniProt Q9Y496)
inactive: erlotinib -0.114 | [1] -0.008 | [2] -0.048 | [3] 0.024 | [4] -0.026 | [5] -0.03 | [6] -0.057 | [7] 0.001 | [8] 0.029 | IRAK-1-4 Inhibitor I -0.019 | ibrutinib -0.06 | [9] -0.145 | ralimetinib 0.063 | [10] -0.211 | [11] 0.131 | [12] 0.035 | [13] -0.179 | [14] -0.057 | [15] -0.061 | [16] -0.011

L3HYPDH (UniProt Q96EM0)
inactive: erlotinib -0.004 | [1] 0.057 | [2] 0.028 | [3] -0.027 | [4] 0.033 | [5] -0.03 | [6] -0.048 | [7] 0 | [8] 0.038 | IRAK-1-4 Inhibitor I 0.029 | ibrutinib -0.004 | [9] 0.039 | ralimetinib -0.021 | [10] -0.004 | [11] 0.004 | [12] -0.044 | [13] -0.001 | [14] 0.032 | [15] 0.018 | [16] -0.024

LARP1B, A0A3B3ISF0
inactive: erlotinib -0.089 | [1] -0.09 | [2] 0.051 | [3] 0.054 | [4] -0.026 | [5] -0.054 | [6] 0.013 | [7] -0.02 | [8] 0.012 | IRAK-1-4 Inhibitor I -0.006 | ibrutinib -0.059 | [9] -0.011 | ralimetinib -0.035 | [10] 0.008 | [11] -0.084 | [12] -0.016 | [13] -0.024 | [14] -0.077 | [15] 0.01 | [16] 0.152

KLHL41 (UniProt O60662)
inactive: erlotinib 0.086 | [1] 0.096 | [2] 0.055 | [3] -0.022 | [4] -0.097 | [5] -0.045 | [6] -0.17 | [7] 0.058 | [8] 0.112 | IRAK-1-4 Inhibitor I 0.079 | ibrutinib -0.063 | [9] -0.073 | ralimetinib -0.005 | [10] -0.205 | [11] 0.036 | [12] 0.011 | [13] -0.086 | [14] 0.328 | [15] 0.027 | [16] 0.022

KIF11 (UniProt P52732)
inactive: erlotinib -0.014 | [1] 0.012 | [2] -0.016 | [3] -0.004 | [4] -0.004 | [5] -0.004 | [6] -0.023 | [7] -0.005 | [8] -0.013 | IRAK-1-4 Inhibitor I -0.033 | ibrutinib 0.005 | [9] -0.003 | ralimetinib 0.029 | [10] 0.01 | [11] 0.007 | [12] 0.005 | [13] 0.01 | [14] -0.019 | [15] 0.014 | [16] 0.015

KMT2A isoform 3 (UniProt Q03164)
inactive: erlotinib -0.022 | [1] 0.351 | [2] 0.041 | [3] -0.047 | [4] -0.014 | [5] -0.069 | [6] -0.004 | [7] 0.005 | [8] -0.06 | IRAK-1-4 Inhibitor I 0.07 | ibrutinib -0.054 | [9] 0.005 | ralimetinib -0.008 | [10] -0.117 | [11] 0.019 | [12] -0.114 | [13] -0.047 | [14] -0.046 | [15] 0.025 | [16] 0

KHK isoform 2 (UniProt P50053)
inactive: erlotinib -0.07 | [1] 0.024 | [2] 0.072 | [3] -0.005 | [4] 0.044 | [5] 0.069 | [6] 0.044 | [7] 0.032 | [8] -0.018 | IRAK-1-4 Inhibitor I 0.084 | ibrutinib 0.023 | [9] 0.039 | ralimetinib 0.001 | [10] -0.032 | [11] -0.033 | [12] 0.013 | [13] -0.025 | [14] 0.185 | [15] -0.033 | [16] -0.04

KMT2C isoform 3 (UniProt Q8NEZ4)
inactive: erlotinib 0.031 | [1] -0.029 | [2] -0.029 | [3] 0.016 | [4] -0.053 | [5] 0.067 | [6] -0.009 | [7] -0.018 | [8] -0.01 | IRAK-1-4 Inhibitor I 0.005 | ibrutinib 0.027 | [9] 0.013 | ralimetinib 0 | [10] -0.048 | [11] 0.001 | [12] -0.027 | [13] -0.027 | [14] 0.044 | [15] 0.014 | [16] -0.021

KNSTRN (UniProt Q9Y448)
inactive: erlotinib -0.007 | [1] -0.003 | [2] -0.018 | [3] 0.006 | [4] -0.018 | [5] 0.015 | [6] 0.012 | [7] 0.036 | [8] -0.061 | IRAK-1-4 Inhibitor I -0.039 | ibrutinib -0.017 | [9] 0.018 | ralimetinib 0.027 | [10] 0.081 | [11] -0.008 | [12] 0.022 | [13] -0.023 | [14] -0.032 | [15] 0 | [16] 0.002

KRIT1 (UniProt O00522)
inactive: erlotinib 0.071 | [1] 0.061 | [2] 0.043 | [3] -0.074 | [4] 0.177 | [5] 0.038 | [6] -0.034 | [7] -0.042 | [8] 0.043 | IRAK-1-4 Inhibitor I -0.073 | ibrutinib 0.089 | [9] -0.047 | ralimetinib 0.001 | [10] -0.02 | [11] 0.045 | [12] -0.041 | [13] -0.075 | [14] 0.045 | [15] -0.011 | [16] -0.095
